Source: PubChem BioAssay AID1159578 (Peter MacCallum Cancer Centre, 2015)

- Assay: 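siRNA pools altering how lymphatic endothelial cells close a scratch wound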 (primary screen)
- Cells: human lymphatic endothelial cells
- Reagent: siRNA pool against human genes, 40 nM
- Timing: 48 h after transfection
- Measured: 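High-content imaging of dye-stained cells in a scratch assay measures filled wound area and nuclei per well; duplicate means given as ratio to mock and robust z-score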
- Scale: migration robust z-score: higher = faster migration into the scratch; nuclei per well: higher = more cells in the well
- Hit rule: 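Migration changed when robust z exceeds 2 or falls below -2 and mean nuclei number is at least 3300; otherwise not called changed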
- Meaning of the calls: active = migration changed; inactive = no migration change, or too few cells
This is a random part of about 18,000 reagents. Over the whole deposit, about 1,030 (5.7%) are marked active. 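Inactive calls also include pools with fewer than 3300 nuclei, whose migration was not assessed.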 Raw values are not corrected between plates. Further read-outs or replicates are left out here. Reagent sequences are not shown.

no.	target gene	migration robust z-score	nuclei per well, duplicate mean	outcome
1	ZNF510 (zinc finger protein 510)	0.3	5795	inactive
2	TRPM8	-1.01	5008	inactive
3	UNG (uracil DNA glycosylase)	0.2	4982	inactive
4	SLC2A2	-1.22	4710	inactive
5	SLC35D2	0.6	5093	inactive
6	WDR55 (WD repeat domain 55)	-3.04	2963	inactive
7	STX8 (syntaxin 8)	-0.9	5128	inactive
8	GALNT4 (polypeptide N-acetylgalactosaminyltransferase 4)	1.02	5124	inactive
9	MOCS2 (molybdenum cofactor synthesis 2)	1.06	6667	inactive
10	LCE1E (late cornified envelope 1E)	1.07	5937	inactive
11	GUCY2F (guanylate cyclase 2F, retinal)	0.86	5764	inactive
12	NDUFA6 (NADH:ubiquinone oxidoreductase subunit A6)	0.83	7112	inactive
13	ZNF772 (zinc finger protein 772)	-2.02	3164	inactive
14	L1TD1 (LINE1 type transposase domain containing 1)	1.07	4700	inactive
15	SNX3 (sorting nexin 3)	-1.84	5074	inactive
16	DDT (D-dopachrome tautomerase)	-0.86	5326	inactive
17	ETAA1 (ETAA1 activator of ATR kinase)	0.04	6980	inactive
18	COQ8A (coenzyme Q8A)	0.29	5025	inactive
19	PKN3 (protein kinase N3)	-1.72	4062	inactive
20	PXN (paxillin)	-0.99	6110	inactive
21	KLHL28 (kelch like family member 28)	0.6	5911	inactive
22	GULP1 (GULP PTB domain containing engulfment adaptor 1)	0.2	7090	inactive
23	WDR11 (WD repeat domain 11)	-0.24	4409	inactive
24	MT1A (metallothionein 1A)	0.88	5692	inactive
25	ACHE (acetylcholinesterase (Yt blood group))	1.14	6323	inactive
26	TMPRSS12 (transmembrane serine protease 12)	0.13	6057	inactive
27	ZNF462 (zinc finger protein 462)	1.62	5626	inactive
28	PGR (progesterone receptor)	0.34	5488	inactive
29	SLC25A26	-1.31	5630	inactive
30	SIK1 (salt inducible kinase 1)	0.42	5009	inactive
31	ASB9 (ankyrin repeat and SOCS box containing 9)	-0.34	5644	inactive
32	NUDT18 (nudix hydrolase 18)	-0.75	5660	inactive
33	CBX6 (chromobox 6)	0.29	7113	inactive
34	ASMTL (acetylserotonin O-methyltransferase like)	-5.74	2494	inactive
35	GATA6 (GATA binding protein 6)	1.19	6138	inactive
36	E2F1 (E2F transcription factor 1)	-0.13	6220	inactive
37	SLC4A3	0	5118	inactive
38	COLCA1 (colorectal cancer associated 1)	-1.25	5388	inactive
39	SIGLEC6 (sialic acid binding Ig like lectin 6)	-1.01	3409	inactive
40	TARBP1 (tRNA guanosine 2 -O-methyltransferase TARBP1)	0.24	7024	inactive
41	MRC2 (mannose receptor C-type 2)	-0.41	7184	inactive
42	ECHDC1 (ethylmalonyl-CoA decarboxylase 1)	0.84	5731	inactive
43	FAM86B1	-1.51	5155	inactive
44	RIPK2 (receptor interacting serine/threonine kinase 2)	-0.88	4854	inactive
45	PARK7 (Parkinsonism associated deglycase)	-1.42	4282	inactive
46	ITCH (itchy E3 ubiquitin protein ligase)	1.3	5358	inactive
47	OR2T11 (olfactory receptor family 2 subfamily T member 11)	0.29	6020	inactive
48	DNAI3 (dynein axonemal intermediate chain 3)	-1.85	3902	inactive
49	GPR183 (G protein-coupled receptor 183)	1.2	6982	inactive
50	IRX2-DT (IRX2 divergent transcript)	-0.74	4435	inactive
51	TYW3 (tRNA-yW synthesizing protein 3 homolog)	-1.16	5812	inactive
52	TMEM31 (transmembrane protein 31)	0.86	6576	inactive
53	TMEM26 (transmembrane protein 26)	-0.71	5795	inactive
54	DDX18 (DEAD-box helicase 18)	0.7	6610	inactive
55	APOB (apolipoprotein B)	-0.78	3570	inactive
56	BATF (basic leucine zipper ATF-like transcription factor)	0.96	5578	inactive
57	EEF1B2 (eukaryotic translation elongation factor 1 beta 2)	-0.64	5556	inactive

Limited to “nuclei per well, duplicate mean” (3 entries from above):
TARBP1 (tRNA guanosine 2 -O-methyltransferase TARBP1) = 7024
MRC2 (mannose receptor C-type 2) = 7184
ECHDC1 (ethylmalonyl-CoA decarboxylase 1) = 5731
